From PubChem BioAssay AID344 (DTP/NCI, 2004)
The list is a part of this screen's results and no random one: it gathers tests that were run many times, whatever their T/C, doses with no T/C, and many T/C values between a quarter and a half above the control. Further doses and runs are listed elsewhere. T/C is the treated group as % of the vehicle group. Some entries give survivors of the animals treated and no T/C: the source files T/C as zero there, which appears to mark a toxic dose or a test without result, not a measured value. Some survivor counts are full or nearly so, which does not show that the dose was tolerated: survival well below the control is almost never listed, so the zero probably covers shortened survival too. Counts of survivors are from the toxicity check (mostly the fifth day) where no day follows; animals may have died later. Schedule codes are those of the source, read here as Q, the interval in days (D) or hours (H), X, the number of doses. Some schedules carry Z or #; the key to these is not given. Where survival is the endpoint, the PubChem record calls one and a half times the control and up active, and a quarter to a half above the control has no call in these data; cut-offs in other NCI protocols can differ. Some T/C values are followed by the survivors on the day toxicity was checked, most often the fifth; where none is given, no animal had died by that day. Some entries hold several experiments; the values are given in rising order.

Test system: mice, LPC-1 plasma cell tumor ip, median survival T/C
Experiment: NCI In Vivo Anticancer Drug Screen. Data for tumor model Lieberman Plasma Cell No. 1 (LPC-1) (intraperitoneal) in unknown mice
Conditions: T/C endpoint: median survival time, higher T/C = longer survival
Description: The antitumor activity of compounds was measured in mice bearing transplantable tumors. Survival or tumor size were measured and the results are expressed as the measurement made in the treated group (T) divided by the measurement made in the vehicle treated control group (C). The tumor model used in this assay is Lieberman Plasma Cell No. 1 (LPC-1) (intraperitoneal) in unknown mice

COc1cc2c(c3c1c(=O)c1ccccc1n3C)C=CC(C)(C)O2
T/C (dose: 12.0 mg/kg/injection, schedule: Q03HX008 (sc), vehicle: other): 133 % of control [9 of 10 alive] | T/C (dose: 12.0 mg/kg/injection, schedule: Q03HX024 (sc), vehicle: other): 128 % of control [7 of 10 alive] | T/C (dose: 14.0 mg/kg/injection, schedule: Q01DX028 (sc), vehicle: other): 135 % of control | T/C (dose: 18.0 mg/kg/injection, schedule: Q03HX024 (sc), vehicle: other): 138 % of control [8 of 10 alive] | T/C (dose: 18.75 mg/kg/injection, schedule: Q03HX008 (oral), vehicle: steroid suspending solution): 125 % of control [7 of 8 alive] | T/C (dose: 18.75 mg/kg/injection, schedule: Q03HX024 (ip), vehicle: steroid suspending solution): 128 % of control | T/C (dose: 27.0 mg/kg/injection, schedule: Q01DX021 (sc), vehicle: other): 135 % of control [8 of 10 alive] | survivor count (dose: 30.0 mg/kg/injection, schedule: Q01DX020 (oral), vehicle: saline): 4 of 8 | survivor count (dose: 37.5 mg/kg/injection, schedule: Q03HX008 (ip), vehicle: steroid suspending solution): 2 of 8 | survivor count (dose: 37.5 mg/kg/injection, schedule: Q03HX024 (ip), vehicle: steroid suspending solution): 1 of 8 | T/C (dose: 39.0 mg/kg/injection, schedule: Q01DX028 (sc), vehicle: other): 129 % of control | T/C (dose: 40.0 mg/kg/injection, schedule: Q01DX005 (sc), vehicle: other): 135 % of control [9 of 10 alive] | T/C (dose: 40.0 mg/kg/injection, schedule: Q04DX003 (sc), vehicle: other): 126 % of control [8 of 10 alive] | survivor count (dose: 44.0 mg/kg/injection, schedule: Q01DX020 (oral), vehicle: saline): 4 of 8 | survivor count (dose: 49.0 mg/kg/injection, schedule: Q03HX024 (sc), vehicle: steroid suspending solution): 5 of 8 | T/C (dose: 60.0 mg/kg/injection, schedule: Q01DX005 (sc), vehicle: other): 128 % of control | T/C (dose: 65.0 mg/kg/injection, schedule: Q01DX028 (sc), vehicle: other): 140 % of control | survivor count (dose: 66.0 mg/kg/injection, schedule: Q01DX020 (oral), vehicle: saline): 5 of 8 | survivor count (dose: 70.0 mg/kg/injection, schedule: Q03HX008 (sc), vehicle: steroid suspending solution): 5 of 8 | T/C (dose: 75.0 mg/kg/injection, schedule: Q01DX001 (oral), vehicle: steroid suspending solution): 137 % of control | survivor count (dose: 75.0 mg/kg/injection, schedule: Q03HX008 (ip), vehicle: steroid suspending solution): 4 of 8 | survivor count (dose: 75.0 mg/kg/injection, schedule: Q03HX024 (ip), vehicle: steroid suspending solution): 3 of 8 | T/C (dose: 75.0 mg/kg/injection, schedule: Q## X008 (oral), vehicle: other): 132 % of control [7 of 8 alive] | T/C (dose: 90.0 mg/kg/injection, schedule: Q01DX001 (sc), vehicle: other): 133 % of control | T/C (dose: 90.0 mg/kg/injection, schedule: Q01DX021 (sc), vehicle: other): 147 % of control [9 of 10 alive] | T/C (dose: 90.0 mg/kg/injection, schedule: Q04DX003 (sc), vehicle: other): 138 % of control | T/C (dose: 95.0 mg/kg/injection, schedule: Q03HX024 (sc), vehicle: other): 143 [7 of 10 alive] and 143 % of control [8 of 10 alive] | T/C (dose: 100.0 mg/kg/injection, schedule: Q03HX008 (sc), vehicle: steroid suspending solution): 146 % of control [7 of 8 alive] | T/C (dose: 100.0 mg/kg/injection, schedule: Q03HX024 (sc), vehicle: steroid suspending solution): 137 % of control | survivor count (dose: 108.0 mg/kg/injection, schedule: Q01DX028 (sc), vehicle: other): 5 of 8 | T/C (dose: 142.0 mg/kg/injection, schedule: Q03HX024 (sc), vehicle: other): 131 % of control [9 of 10 alive] | survivor count (dose: 150.0 mg/kg/injection, schedule: Q01DX001 (oral), vehicle: saline): 3 of 8 | survivor count (dose: 150.0 mg/kg/injection, schedule: Q03HX008 (ip), vehicle: steroid suspending solution): 4 of 8 | T/C (dose: 150.0 mg/kg/injection, schedule: Q03HX008 (oral), vehicle: steroid suspending solution): 131 % of control [6 of 8 alive] | survivor count (dose: 150.0 mg/kg/injection, schedule: Q03HX024 (ip), vehicle: steroid suspending solution): 4 of 8 | T/C (dose: 150.0 mg/kg/injection, schedule: Q## X008 (oral), vehicle: other): 138 % of control [7 of 8 alive] | T/C (dose: 292.0 mg/kg/injection, schedule: Q01DX001 (sc), vehicle: steroid suspending solution): 125 % of control | T/C (dose: 300.0 mg/kg/injection, schedule: Q01DX001 (ip), vehicle: steroid suspending solution): 128 % of control [7 of 8 alive] | survivor count (dose: 300.0 mg/kg/injection, schedule: Q01DX001 (oral), vehicle: saline): 1 of 8 | T/C (dose: 300.0 mg/kg/injection, schedule: Q01DX001 (oral), vehicle: steroid suspending solution): 128 % of control | T/C (dose: 320.0 mg/kg/injection, schedule: Q03HX024 (sc), vehicle: other): 128 % of control [7 of 10 alive] | T/C (dose: 417.0 mg/kg/injection, schedule: Q01DX001 (sc), vehicle: steroid suspending solution): 128 % of control | survivor count (dose: 440.0 mg/kg/injection, schedule: Q01DX001 (oral), vehicle: saline): 1 of 8 | T/C (dose: 528.0 mg/kg/injection, schedule: Q## X024 (sc), vehicle: steroid suspending solution): 132 % of control | T/C (dose: 596.0 mg/kg/injection, schedule: Q01DX001 (sc), vehicle: steroid suspending solution): 131 % of control | T/C (dose: 600.0 mg/kg/injection, schedule: Q01DX001 (oral), vehicle: steroid suspending solution): 134 % of control | survivor count (dose: 600.0 mg/kg/injection, schedule: Q## X008 (oral), vehicle: other): 3 of 8 | survivor count (dose: 600.0 mg/kg/injection, schedule: Q## X008 (oral), vehicle: steroid suspending solution): 5 of 8 | survivor count (dose: 660.0 mg/kg/injection, schedule: Q01DX001 (oral), vehicle: saline): 1 of 8 | T/C (dose: 800.0 mg/kg/injection, schedule: Q## X008 (sc), vehicle: steroid suspending solution): 128 % of control | T/C (dose: 1136.0 mg/kg/injection, schedule: Q## X024 (sc), vehicle: steroid suspending solution): 146 % of control | survivor count (dose: 1200.0 mg/kg/injection, schedule: Q## X008 (oral), vehicle: steroid suspending solution): 3 of 8 | survivor count (dose: 1200.0 mg/kg/injection, schedule: Q## X024 (oral), vehicle: steroid suspending solution): 5 of 8 | T/C (dose: 1712.0 mg/kg/injection, schedule: Q## X008 (sc), vehicle: steroid suspending solution): 132 % of control | survivor count (dose: 2400.0 mg/kg/injection, schedule: Q## X008 (oral), vehicle: steroid suspending solution): 2 of 8 | survivor count (dose: 2400.0 mg/kg/injection, schedule: Q## X024 (oral), vehicle: steroid suspending solution): 0 of 8 | survivor count (dose: 4800.0 mg/kg/injection, schedule: Q## X008 (oral), vehicle: steroid suspending solution): 0 of 8 | survivor count (dose: 4800.0 mg/kg/injection, schedule: Q## X024 (oral), vehicle: steroid suspending solution): 0 of 8

NC(Cc1c[nH]c2ccc(N(CCCl)CCCl)cc12)C(=O)O (configuration not stated)
T/C (dose: 1.08 mg/kg/injection, schedule: Q01DX028 (sc), vehicle: acid diluted with saline): 128 % of control | survivor count (dose: 1.8 mg/kg/injection, schedule: Q01DX028 (sc), vehicle: methylcellulose (MC)): 10 of 10 | survivor count (dose: 3.0 mg/kg/injection, schedule: Q01DX028 (sc), vehicle: methylcellulose (MC)): 10 of 10 | survivor count (dose: 5.0 mg/kg/injection, schedule: Q01DX028 (sc), vehicle: methylcellulose (MC)): 10 of 10
